Assay results taken from PubChem BioAssay AID296 (DTP/NCI, 2004).
The list shows only some results of the screen, not a fair sample: it is rich in T/C values a quarter to a half above the control, in often repeated tests (any T/C) and in doses without a T/C. Other doses and runs of a compound stand elsewhere. T/C is the treated group as % of the vehicle group. Schedule codes are those of the source, taken here to give the interval after Q, in days (D) or hours (H), and the number of doses after X. Some T/C values are followed by the survivors on the day toxicity was checked, most often the fifth; without a count, all were alive then. Some doses have a count of surviving animals in place of a T/C: the source files T/C as zero there, which appears to mark a toxic dose or a test without result, not a measured value. Survivors were counted at the toxicity check, usually on the fifth day, unless a day is given; later deaths do not show. Some doses were run more than once; their values stand side by side, smallest first.

System: MX-1 breast xenograft, nude mice, tumor weight T/C
Experiment: NCI In Vivo Anticancer Drug Screen. Data for tumor model Human Mammary Carcinoma MX-1 Xenograft (intrarenal inoculation) in NU/NU Swiss (nude) mice
Details: T/C endpoint: mean tumor weight change, higher T/C = larger tumour; for T/C: evaluated on day 11
How it was run: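 Read-out: treated (T) over vehicle control (C) ratio of survival or tumor size. Dosing in animals carrying the transplanted tumor.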

[1] = dose: 1200.0 mg/kg/injection, schedule: Q04DX003 (sc), vehicle: saline with Tween-80
[2] = dose: 2400.0 mg/kg/injection, schedule: Q04DX003 (sc), vehicle: saline with Tween-80

COC1C(O)CC(OC2CC(OC3CC(O[C@@H]4C(=O)c5c(cc6cc(OC7CC(OC8CC(O)C(O)C(C)O8)C(O)C(C)O7)c(C)c(O)c6c5O)C[C@H]4[C@H](OC)C(=O)[C@@H](O)[C@@H](C)O)OC(C)C3O)OC(C)C2O)OC1C (stereo partly specified)
survivor count (dose: 1.5 mg/kg/injection, schedule: Q01DX010 (sc), vehicle: saline): 0 of 3 on day 11 | survivor count (dose: 6.0 mg/kg/injection, schedule: Q01DX010 (sc), vehicle: saline): 1 of 3 on day 11

CC(=O)Oc1c(C)[nH]ccc1=O
survivor count (dose: 1600.0 mg/kg/injection, schedule: Q04DX003 (sc), vehicle: suspension in saline): 3 of 6 on day 11

CCCCc1ccc2nc(NC(=O)OC)[nH]c2c1
T/C (dose: 100.0 mg/kg/injection, schedule: Q01DX010 (sc), vehicle: saline with Tween-80): 145 % of control

COC1CC(C)C(OC)C2=CC(=O)C=C(NC(=O)/C(C)=C/C=C\C(C)C(OC(N)=O)/C(C)=C\C(C)C1OC)C2=O (stereo unspecified)
survivor count (dose: 50.0 mg/kg/injection, schedule: Q04DX003 (sc), vehicle: saline + alcohol): 1 of 6 on day 11 | survivor count (dose: 100.0 mg/kg/injection, schedule: Q04DX003 (sc), vehicle: saline + alcohol): 1 of 6 on day 11

COC1=C(N)C(=O)c2nc(-c3nc(C(=O)O)c(C)c(-c4ccc(OC)c(OC)c4O)c3N)ccc2C1=O
survivor count (dose: 1.0 mg/kg/injection, schedule: Q01DX010 (sc), vehicle: saline): 0 of 3 on day 11 and 0 of 6 on day 11

CC1=C[S+](c2ccccc2)c2cccc3cc4ccccc4c1c23 (stereo unspecified)
T/C (dose: 32.0 mg/kg/injection, schedule: Q04DX003 (sc), vehicle: saline with Tween-80): 125 % of control [4 of 6 alive on day 11] | survivor count (dose: 64.0 mg/kg/injection, schedule: Q04DX003 (sc), vehicle: saline with Tween-80): 2 of 6 on day 11

COC(=O)C(Cl)(Cl)N=Nc1c(Cl)cc(Cl)c(C)c1Cl
T/C [1]: 127 % of control | survivor count [2]: 1 of 6 on day 11

COC1CC(CC2CCC(C)C(C(C)C(=O)O)O2)OC2(OC(C)(C3CCC(C)(C4OC(C5OC(O)(CO)C(C)CC5C)CC4C)O3)CC2C)C1C (stereo unspecified)
survivor count (dose: 30.0 mg/kg/injection, schedule: Q04DX003 (sc), vehicle: Klucel (hydroxypropylcellulose) (HPC)): 2 of 6 on day 11

COc1cc2c(c(OC)c1OC)-c1ccc(OC)c(=O)cc1[C@@H](NC(=O)CCl)CC2
survivor count (dose: 5.0 mg/kg/injection, schedule: Q04DX003 (sc), vehicle: saline with Tween-80): 0 of 6 on day 11 | survivor count (dose: 10.0 mg/kg/injection, schedule: Q04DX003 (sc), vehicle: saline with Tween-80): 0 of 6 on day 11 | survivor count (dose: 20.0 mg/kg/injection, schedule: Q04DX003 (sc), vehicle: saline with Tween-80): 0 of 6 on day 11 | survivor count (dose: 40.0 mg/kg/injection, schedule: Q04DX003 (sc), vehicle: saline with Tween-80): 0 of 6 on day 11

CCOC(=O)C(CC(C)C)NC(=O)C(N)Cc1ccc(N(CCCl)CCCl)cc1 (stereo unspecified)
survivor count (dose: 60.0 mg/kg/injection, schedule: Q04DX003 (sc), vehicle: water): 2 of 6 on day 11 | survivor count (dose: 120.0 mg/kg/injection, schedule: Q04DX003 (sc), vehicle: water): 0 of 6 on day 11 and 1 of 6 on day 11

NC(Cn1ccc(=O)c(O)c1)C(=O)O (stereo unspecified)
T/C (dose: 600.0 mg/kg/injection, schedule: Q04DX003 (sc), vehicle: saline): 131 % of control

Oc1ccc(O)cc1
survivor count (dose: 200.0 mg/kg/injection, schedule: Q04DX003 (sc), vehicle: saline): 2 of 6 on day 11

O=Cc1c(O)c2ccccc2[nH]c1=O
survivor count [1]: 3 of 6 on day 11

C[Si](C)(CCl)N[Si](C)(C)CCl
survivor count [1]: 3 of 6 on day 11 | survivor count [2]: 0 of 6 on day 11

C1CCC(NC2CCCCC2)CC1
T/C (dose: 300.0 mg/kg/injection, schedule: Q04DX003 (ip), vehicle: saline): 128 % of control | survivor count (dose: 600.0 mg/kg/injection, schedule: Q04DX003 (ip), vehicle: saline): 2 of 6 on day 11

Cc1cc(N(CCOS(C)(=O)=O)CCOS(C)(=O)=O)ccc1C=Nc1ccc(-c2nc(Cc3ccccc3)sc2C)cc1
survivor count (dose: 400.0 mg/kg/injection, schedule: Q01DX010 (sc), vehicle: Klucel (hydroxypropylcellulose) (HPC)): 1 of 3 on day 11
